Reference: PubChem BioAssay AID652259 (Drosophila RNAi Screening Center, 2013)
Screen: 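Knock-downs that push a Wingless-driven reporter up or down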 (primary screen). System: Drosophila clone 8 imaginal disc epithelial cells. Reagents: long dsRNA against Drosophila genes. Challenge: pathway stimulated by co-transfected Wingless expression plasmid. Measured: 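Dual luciferase reads per well after Wingless plasmid stimulation: reporter firefly light and Renilla control light; activity is firefly divided by Renilla, a ratio not deposited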. Reading the numbers: firefly reporter light: higher = more Wg reporter light, before normalisation; Renilla control light: higher = more transfected or surviving cells. Rule for the call: 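Strong candidates differ from their plate mean by at least two out of four per-plate statistical tests; weak candidates meet just one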. Meaning of the calls: active = candidate regulator (raises or lowers reporter); inactive = not a candidate.
The deposit covers about 22,000 reagents; below is a random part of those that have a named target and a result. Of all reagents, 233 (1.1%) are marked active. 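Light values are raw, unnormalised plate reads; the ratio scores behind the reporter calls were not deposited.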 A plus sign joins genes that one reagent is predicted to hit. The record does not give: the amount of reagent, the time to read-out, the dose of the treatment.

target | DRSC id | firefly reporter light, replicate 1 | firefly reporter light, replicate 2 | Renilla control light, replicate 1 | Renilla control light, replicate 2 | call
CG34167 | DRSC01525 | 18964 | – | 9440 | – | inactive
Pcl (Polycomblike) | DRSC07503 | 20693 | – | 5228 | – | inactive
CG1840 | DRSC19806 | 3067 | 4843 | 1304 | 2246 | inactive
Mkrn1 (Makorin 1) | DRSC11870 | 15248 | 9.46e5 | 6672 | 4.39e5 | inactive
PIG-S (Phosphatidylinositol glycan anchor biosynthesis class S) | DRSC14643 | 3219 | 7835 | 904 | 1176 | inactive
PIG-S (Phosphatidylinositol glycan anchor biosynthesis class S) | DRSC15388 | 19633 | – | 16450 | – | inactive
PIG-S (Phosphatidylinositol glycan anchor biosynthesis class S) | DRSC15952 | 3177 | 6903 | 1643 | 1763 | inactive
CG1622 | DRSC19745 | 3232 | 7881 | 873 | 2036 | inactive
kri (krishah) | DRSC10515 | 8667 | – | 3964 | – | inactive
CG11127 | DRSC06043 | 11120 | – | 4349 | – | inactive
dsx (doublesex) | DRSC12649 | 2180 | – | 912 | – | inactive
dsx (doublesex) | DRSC16934 | 9248 | – | 2224 | – | inactive
dsx (doublesex) | DRSC21495 | 7.76e5 | 7.90e5 | 3.87e5 | 3.19e5 | inactive
CG32201 | DRSC22452 | 5.11e5 | 5.32e5 | 1.86e5 | 1.62e5 | inactive
Ir21a + asRNA:CR43609 | DRSC00528 | 2696 | 6720 | 1058 | 2338 | inactive
tut (tumorous testis) | DRSC08909 | 2848 | – | 400 | – | inactive
ppk31 (pickpocket 31) | DRSC13811 | 3719 | – | 1541 | – | inactive
CG8746 | DRSC07257 | 2536 | 7504 | 819 | 3108 | inactive
CG4098 | DRSC10399 | 9786 | – | 4268 | – | inactive
pira (pirate) | DRSC19494 | 17937 | – | 7484 | – | inactive
Acp26Aa (Accessory gland protein 26Aa) | DRSC01855 | 2320 | 5840 | 784 | 1753 | inactive
CG15034 | DRSC17966 | 19112 | – | 10757 | – | inactive
Atg101 (Autophagy-related 101) | DRSC20020 | 12674 | – | 6563 | – | inactive
Eig71Ej | DRSC11157 | 4535 | – | 2982 | – | inactive
Jheh1 (Juvenile hormone epoxide hydrolase 1) | DRSC06529 | 7500 | – | 2860 | – | inactive
bnl (branchless) | DRSC13377 | 3384 | – | 1869 | – | inactive
bnl (branchless) | DRSC16913 | 2102 | 3427 | 405 | 513 | inactive
CG9150 | DRSC03148 | 2108 | 7313 | 631 | 2105 | inactive
pyd (polychaetoid) | DRSC12712 | 4736 | – | 2208 | – | inactive
pyd (polychaetoid) | DRSC14387 | 6146 | – | 2311 | – | inactive
pyd (polychaetoid) | DRSC14445 | 14077 | – | 3028 | – | inactive
pyd (polychaetoid) | DRSC14509 | 19715 | – | 5308 | – | inactive
pyd (polychaetoid) | DRSC16547 | 7492 | – | 2330 | – | inactive
pyd (polychaetoid) | DRSC16548 | 25139 | – | 3789 | – | inactive
pyd (polychaetoid) | DRSC17041 | 17383 | – | 5261 | – | inactive
pyd (polychaetoid) | DRSC21523 | 5.80e5 | 5.84e5 | 3.20e5 | 2.45e5 | inactive
